Measured values taken from the supplement of paper PMC10849652.
This is one part of the list.

Chains of the proteins cited; added tags and fusions are not shown. Lines headed by an entry give the natural chain unless they say otherwise; changes in a name come on top.
UniProt Q9BX68: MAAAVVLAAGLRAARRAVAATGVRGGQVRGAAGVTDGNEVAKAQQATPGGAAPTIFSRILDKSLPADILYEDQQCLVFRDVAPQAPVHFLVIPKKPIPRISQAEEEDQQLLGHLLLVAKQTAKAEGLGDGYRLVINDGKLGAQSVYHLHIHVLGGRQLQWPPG
UniProt P34931, whole entry, looked up: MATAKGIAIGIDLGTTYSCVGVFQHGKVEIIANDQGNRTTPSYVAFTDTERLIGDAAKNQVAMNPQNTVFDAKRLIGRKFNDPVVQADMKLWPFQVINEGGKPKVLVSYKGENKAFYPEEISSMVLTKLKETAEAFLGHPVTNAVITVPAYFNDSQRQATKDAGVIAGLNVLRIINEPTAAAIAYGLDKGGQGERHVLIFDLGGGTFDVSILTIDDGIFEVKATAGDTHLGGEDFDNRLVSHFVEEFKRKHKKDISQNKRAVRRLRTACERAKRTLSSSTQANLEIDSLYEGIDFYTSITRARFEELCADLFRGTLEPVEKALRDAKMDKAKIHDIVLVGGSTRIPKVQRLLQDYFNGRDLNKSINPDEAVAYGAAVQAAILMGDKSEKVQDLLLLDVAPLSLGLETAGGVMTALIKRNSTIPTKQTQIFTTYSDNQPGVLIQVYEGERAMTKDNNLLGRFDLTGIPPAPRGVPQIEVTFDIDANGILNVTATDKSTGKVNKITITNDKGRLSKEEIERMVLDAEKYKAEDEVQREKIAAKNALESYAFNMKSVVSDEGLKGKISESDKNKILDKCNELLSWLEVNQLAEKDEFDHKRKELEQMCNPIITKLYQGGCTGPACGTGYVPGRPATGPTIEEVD
UniProt Q8TB92: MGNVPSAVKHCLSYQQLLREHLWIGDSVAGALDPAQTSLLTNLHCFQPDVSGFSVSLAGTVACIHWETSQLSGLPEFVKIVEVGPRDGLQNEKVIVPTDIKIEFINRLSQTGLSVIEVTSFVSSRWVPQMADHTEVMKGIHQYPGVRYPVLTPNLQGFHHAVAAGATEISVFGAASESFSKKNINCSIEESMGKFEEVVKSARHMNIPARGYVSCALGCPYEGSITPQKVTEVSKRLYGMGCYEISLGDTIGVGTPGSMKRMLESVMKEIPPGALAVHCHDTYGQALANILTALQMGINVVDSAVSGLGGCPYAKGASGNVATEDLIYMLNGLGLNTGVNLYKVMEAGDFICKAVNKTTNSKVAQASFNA
UniProt P00492: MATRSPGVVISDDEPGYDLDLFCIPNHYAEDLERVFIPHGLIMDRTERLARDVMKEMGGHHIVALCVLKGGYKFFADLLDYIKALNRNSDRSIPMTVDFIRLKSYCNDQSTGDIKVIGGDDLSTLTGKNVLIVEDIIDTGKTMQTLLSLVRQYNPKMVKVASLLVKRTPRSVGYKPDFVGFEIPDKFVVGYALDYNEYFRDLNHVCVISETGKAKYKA
UniProt P51991: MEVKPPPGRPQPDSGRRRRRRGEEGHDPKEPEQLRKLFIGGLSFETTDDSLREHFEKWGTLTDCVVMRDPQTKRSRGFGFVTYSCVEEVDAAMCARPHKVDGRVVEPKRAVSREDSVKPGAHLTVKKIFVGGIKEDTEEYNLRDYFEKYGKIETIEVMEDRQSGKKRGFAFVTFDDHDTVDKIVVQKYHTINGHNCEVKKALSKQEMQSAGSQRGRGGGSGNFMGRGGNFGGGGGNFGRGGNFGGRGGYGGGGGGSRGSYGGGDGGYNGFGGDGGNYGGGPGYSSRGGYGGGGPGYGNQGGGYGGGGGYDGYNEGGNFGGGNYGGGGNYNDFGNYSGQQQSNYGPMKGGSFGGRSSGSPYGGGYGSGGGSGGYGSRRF
UniProt Q58FF6, whole entry, looked up: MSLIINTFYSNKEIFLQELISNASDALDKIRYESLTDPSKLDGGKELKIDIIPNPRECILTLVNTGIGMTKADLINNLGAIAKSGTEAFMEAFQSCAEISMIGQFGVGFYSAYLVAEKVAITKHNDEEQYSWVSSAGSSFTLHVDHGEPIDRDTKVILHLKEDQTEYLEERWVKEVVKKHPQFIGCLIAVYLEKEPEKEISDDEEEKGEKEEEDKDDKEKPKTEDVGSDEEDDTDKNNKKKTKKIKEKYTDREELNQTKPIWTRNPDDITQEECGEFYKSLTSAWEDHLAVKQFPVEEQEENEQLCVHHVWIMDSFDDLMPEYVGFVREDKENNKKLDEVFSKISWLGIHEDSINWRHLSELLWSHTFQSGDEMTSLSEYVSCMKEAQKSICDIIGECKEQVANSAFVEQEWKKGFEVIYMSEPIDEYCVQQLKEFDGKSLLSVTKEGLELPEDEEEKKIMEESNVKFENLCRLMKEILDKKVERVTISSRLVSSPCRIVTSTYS

Tests used:
Assay in all cases: log2 fold change, soluble protein after heating vs DMSO (PISA); higher = thermal stabilisation; K562 cells, 10 uM, 30 min; active = over 0.2 and 3.5 SD of the protein, either way, in both replicates (recomputed)
[1] = compound: NC(=O)Nc1cc(-c2cccc(F)c2)sc1C(=O)N[C@H]1CCCNC1
Method in brief: (§1)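 Soluble protein was defined as the supernatant after 21,000xg for 90 min. It came from K562 cells at 2×10^6 cells/mL given 10 μM compound for 30 min, heated in aliquots for 3 min across 48°C-58°C, pooled, and extracted in PBS with 0.5% NP-40 at 4°C, and was quantified by TMTpro 16plex LC-MS/MS with equalised channel sums. Thermal stability against control samples, from duplicates, is reported as log2 fold change.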

[2] = compound: NC(=O)c1cnc(N[C@@H]2CCCC[C@@H]2N)nc1Nc1cccc(-n2nccn2)c1
Method in brief: as §1

[3] = compound: NC1(c2ccc(-c3nc4ccn5c(=O)[nH]nc5c4cc3-c3ccccc3)cc2)CCC1
Method in brief: as §1

[4] = compound: NCC(=O)Nc1ccc(-n2nc(C(F)(F)F)cc2-c2ccc3c(ccc4ccccc43)c2)cc1
Method in brief: as §1

entinostat = compound: Nc1ccccc1NC(=O)c1ccc(CNC(=O)OCc2cccnc2)cc1 [entinostat]
Method in brief: as §1

vorinostat = compound: O=C(CCCCCCC(=O)Nc1ccccc1)NO [vorinostat]
Method in brief: as §1

citarinostat = compound: O=C(CCCCCCNC(=O)c1cnc(N(c2ccccc2)c2ccccc2Cl)nc1)NO [citarinostat]
Method in brief: as §1

silmitasertib = compound: O=C(O)c1ccc2c(c1)nc(Nc1cccc(Cl)c1)c1ccncc12 [silmitasertib]
Method in brief: as §1

[5] = compound: c1cc(OCCN2CCCCC2)cc(-c2n[nH]c3ccc(-c4nnc[nH]4)cc23)c1
Method in brief: as §1

[6] = compound: O=C1NC(=O)C(c2cnc3ccccn23)=C1c1cn2c3c(cc(F)cc13)CN(C(=O)N1CCCCC1)CC2
Method in brief: as §1

Measured: log2 fold change

HINT2 (UniProt Q9BX68)
inactive: [1] 0.096 | [2] 0.078 | [3] -0.084 | [4] 0.041 | entinostat -0.034 | vorinostat -0.053 | citarinostat -0.009 | silmitasertib -0.015 | [5] -0.055

HSPA1L (UniProt P34931)
inactive: [1] -0.006 | [2] -0.025 | [3] 0.031 | [4] -0.224 | entinostat -0.084 | vorinostat 0.273 | citarinostat -0.052 | silmitasertib -0.052 | [6] -0.126 | [5] 0.03

HMGCLL1 (UniProt Q8TB92)
inactive: [1] -0.036 | [2] -0.053 | [3] -0.08 | [4] -0.082 | entinostat 0.01 | vorinostat -0.06 | citarinostat -0.046 | silmitasertib -0.045 | [6] -0.028 | [5] 0.008

HPRT1 (UniProt P00492)
inactive: [1] 0.042 | [2] 0.036 | [3] 0.014 | [4] 0.079 | entinostat -0.014 | vorinostat -0.004 | citarinostat 0.022 | silmitasertib -0.025 | [6] -0.031 | [5] -0.06

HNRNPA3 (UniProt P51991)
inactive: [1] -0.038 | [2] 0.063 | [3] 0.402 | [4] 0.109 | entinostat -0.056 | vorinostat -0.148 | citarinostat -0.175 | silmitasertib 0.275 | [6] 0.266 | [5] -0.292

HSP90AB4P (UniProt Q58FF6)
inactive: [1] -0.086 | [2] -0.435 | [3] -0.54 | entinostat 0.001 | citarinostat -0.003 | silmitasertib 0.267 | [6] -0.097 | [5] 0.022
